Results on two molecules are retold here after article doi:10.1101/2024.12.22.629540.

Amino acid sequences for entries named in this document (tags omitted).
UniProt P70610: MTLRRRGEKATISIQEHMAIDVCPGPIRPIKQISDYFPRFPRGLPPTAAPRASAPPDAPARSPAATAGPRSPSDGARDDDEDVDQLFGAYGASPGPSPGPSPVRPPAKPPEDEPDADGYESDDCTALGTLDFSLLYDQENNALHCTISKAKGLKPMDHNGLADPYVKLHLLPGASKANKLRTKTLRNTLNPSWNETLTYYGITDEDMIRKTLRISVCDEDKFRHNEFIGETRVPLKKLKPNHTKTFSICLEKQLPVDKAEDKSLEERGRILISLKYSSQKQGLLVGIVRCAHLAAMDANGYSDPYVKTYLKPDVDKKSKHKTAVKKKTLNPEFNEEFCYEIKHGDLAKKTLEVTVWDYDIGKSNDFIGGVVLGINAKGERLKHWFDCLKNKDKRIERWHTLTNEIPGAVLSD

Results are given in words; binding and its absence hold for the method and conditions named. Binding seen in cells or lysates may run through a third protein. Here binding means that the protein was enriched with, or labelled near, the bait; the list need not be complete.

The experiment deals with rat DOC2b-GFP (double C2 like domain beta) (rat) (UniProt P70610). The experiment is described as follows: affinity purification with mass spectrometry.

B1: STAT-1 (protein, UniProt Q9QXK0 1-749)
chain: MSQWFELQQLDSKFLEQVHQLYDDSFPMEIRQYLAQWLEKQDWEHAAYDVSFATIRFHDLLSQLDDQYSRFSLENNFLLQHNIRKSKRNLQDNFQEDPVQMSMIIHNCLKEERKILENAQRFNQAQEGNIQNTVMLDKQKELDSKVRNVKDQVMCIEHEIKTLEDLQDEYDFKCKTSQNRESEANGVAKSDQKQEQLLLHKMFLMLDNKRKEIIHKIRELLNSIELTQNTLINDELVEWKRRQQSACIGGPPNACLDQLQSWFTIVAESLQQVRQQLKKLEELEQKFTYEQDPITKNKQVLSDRTFVLFQQLIQSSFVVERQPCMPTHPQRPLVLKTGVQFTVKLRLLVKLQELNYNLKVKVSFDKDVNEKNTVKGFRKFNILGTHTKVMNMEESTNGSLAAEFRHLQLKEQKNAGNRTNEGPLIVTEELHSLSFETQLCQPGLVIDLETTSLPVVVISNVSQLPSGWASILWYNMLVTEPRNLSFFLNPPCAWWSQLSEVLSWQFSSVTKRGLNADQLSMLGEKLLGPNAGPDGLIPWTRFCKENINDKNFSFWPWIDTILELIKKHLLCLWNDGCIMGFISKERERALLKDQQPGTFLLRFSESSREGAITFTWVERSQNGGEPDFHAVEPYTKKELSAVTFPDIIRNYKVMAAENIPENPLKYLYPNIDKDHAFGKYYSRPKEAPEPMELDDPKRTGYIKTELISVSEVHPSRLQSTENLLPMSPEEFDEMSKIVGSEFDSMMSAV
Regarding B1, the binding result is “binds”.

B2: IKKβ (protein, UniProt Q9QY78 1-757)
chain: MSWSPSLPTQTCGAWEMKERLGTGGFGNVIRWHNQVTGEQIAIKQCRQELSPKNRDRWCLEIQIMRRLNHPNVVAARDVPEGMQNLAPNDLPLLAMEYCQGGDLRRYLNQFENCCGLREGAILTLLSDIASALRYLHENRIIHRDLKPENIVLQQGEKRLIHKIIDLGYAKELDQGSLCTSFVGTLQYLAPELLEQQKYTVTVDYWSFGTLAFECITGFRPFLPNWQPVQWHSKVRQKSEVDIVVSEDLNGTVKFSSSSPFPNNLNSVLAERLEKWLQLMLTWQPRQRGVDPQYGPNGCFRALDDILNLKLVHILNMVTGTIHTYPVMEDESLQSLKTRIREDTGILETDQELLQEAGLVLLPDKPATQCISDSKTNEGLTLDMDLVFLFDNSKMSYETQITPRPQPESVSCVLQEPKRNLSFFQMRKVWGQVWHSIQTLKEDCNRLQQGQRAAMMNLLRNNSCLSKMKNAMASTAQQLKAKLDFFKTSIQIDLEKYREQTEFGITSDKLLLAWREMEQAVEQCGRENDVKVLVERMMALQTDIVDLQRSPMGRKQGGTLDDLEEQARELYRRLREKPRDQRTEGDSQDMVRLLLQAIQSFEKKVRVIYSQLSKTVVCKQKALELLPKVEEVVRLMNEDEKTVVRLQEKRQKELWNLLKIACSKVRGPVSGSPDSMNVSRLSHPGHLMSQPSSACDSLPDSDKKSEELVAEAHALCSRLESALQDTVKQQDRSFTTLDWSWLQMEDEERCGLEQACD
With B2, the binding entry is “binds”.
